From PubChem BioAssay AID256 (DTP/NCI, 2004)
The list is a part of this screen's results and no random one: it gathers tests that were run many times, whatever their T/C, doses with no T/C, and many T/C values between a quarter and a half above the control. Other doses and runs of a compound stand elsewhere. T/C: endpoint of the treated group in % of that of the vehicle group. Some doses have a count of surviving animals in place of a T/C: the source holds a T/C of zero for them, seemingly a mark for toxic or unscored doses. Some doses without a T/C left all or most animals alive at the check, yet need not have been tolerated: the source hardly ever lists a survival T/C far under the control, and the zero likely stands for such cases as well. Counts of survivors are from the toxicity check (mostly the fifth day) where no day follows; animals may have died later. Schedule codes are those of the source, read here as Q, the interval in days (D) or hours (H), X, the number of doses. Some doses were run more than once; the results are listed from low to high. Where survival is the endpoint, this PubChem deposit counts one and a half times the control or more as active, and values a quarter to a half above the control carry no call in these data; other NCI protocols may use other cut-offs. Some schedules carry Z or #; the key to these is not given. Some T/C values are followed by the survivors on the day toxicity was checked, most often the fifth; without a count, all were alive then.

Test system: CD2F1 mice, L1210 leukemia ip, survival T/C
Assay: NCI In Vivo Anticancer Drug Screen. Data for tumor model L1210 Leukemia (intraperitoneal) in CD2F1 (CDF1) mice
Details: higher T/C = longer survival
Procedure, shortened: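 Activity against a transplanted murine tumor was judged by comparing the compound group with a vehicle group. The outcome in the treated animals was divided by that in the controls.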

[1] = T/C endpoint: mean survival time, dose: 400.0 mg/kg/injection, schedule: Q04DX003 (ip), vehicle: saline with Tween-80
[2] = T/C endpoint: mean survival time, dose: 400.0 mg/kg/injection, schedule: Q01DX009 (ip), vehicle: saline with Tween-80
[3] = T/C endpoint: mean survival time, dose: 150.0 mg/kg/injection, schedule: Q01DX001 (ip), vehicle: saline
[4] = T/C endpoint: mean survival time, dose: 300.0 mg/kg/injection, schedule: Q01DX001 (ip), vehicle: saline
[5] = T/C endpoint: mean survival time, dose: 50.0 mg/kg/injection, schedule: Q01DX009 (ip), vehicle: water
[6] = T/C endpoint: mean survival time, dose: 100.0 mg/kg/injection, schedule: Q01DX009 (ip), vehicle: water
[7] = T/C endpoint: mean survival time, dose: 200.0 mg/kg/injection, schedule: Q01DX009 (ip), vehicle: water
[8] = T/C endpoint: mean survival time, dose: 400.0 mg/kg/injection, schedule: Q01DX001 (ip), vehicle: saline
[9] = T/C endpoint: median survival time, dose: 25.0 mg/kg/injection, schedule: Q01DX009 (ip), vehicle: Klucel (hydroxypropylcellulose) (HPC)
[10] = T/C endpoint: mean survival time, dose: 200.0 mg/kg/injection, schedule: Q01DX001 (ip), vehicle: saline

CCCCC(CC(=O)O)c1ccc(Cl)cc1 (stereo not given)
survivor count [1]: 1 of 6

CC(C)(CO)C(O)C(=O)NCCS(=O)(=O)c1ccc(F)cc1 (stereo not given)
survivor count [2]: 6 of 6

O=C(CCCCCCCCC(=O)N/N=C\c1ccccc1O)N/N=C\c1ccccc1O
survivor count (T/C endpoint: mean survival time, dose: 25.0 mg/kg/injection, schedule: Q01DX009 (ip), vehicle: saline with Tween-80): 6 of 6 | survivor count (T/C endpoint: mean survival time, dose: 50.0 mg/kg/injection, schedule: Q01DX009 (ip), vehicle: saline with Tween-80): 6 of 6

COc1cc(NCCCCNC(C)C)c2ncccc2c1
survivor count [3]: 0 of 6 | survivor count [4]: 0 of 6

O=C(OC(CN1CCCCC1)CN1CCCc2ccccc21)C(O)C(O)C(O)(CO)C(=O)OC(CN1CCCCC1)CN1CCCc2ccccc21 (stereo not given)
survivor count [1]: 0 of 6

CC(C)(C)c1cc(CN2CCCC(O)C2)c(O)c(-c2ccccc2)c1 (stereo not given)
survivor count (T/C endpoint: mean survival time, dose: 200.0 mg/kg/injection, schedule: Q01DX009 (ip), vehicle: saline): 1 of 6

CN(C)c1ccc(N=Nc2ccccc2)cc1
survivor count (T/C endpoint: mean survival time, dose: 125.0 mg/kg/injection, schedule: Q01DX009 (ip), vehicle: saline with Tween-80): 6 of 6 | survivor count (T/C endpoint: mean survival time, dose: 250.0 mg/kg/injection, schedule: Q04DX003 (ip), vehicle: saline with Tween-80): 4 of 6

Clc1nnc(Cl)c(Cl)c1Cl
survivor count (T/C endpoint: mean survival time, dose: 6.25 mg/kg/injection, schedule: Q04DX003 (ip), vehicle: saline with Tween-80): 2 of 6 | survivor count (T/C endpoint: mean survival time, dose: 12.5 mg/kg/injection, schedule: Q04DX003 (ip), vehicle: saline with Tween-80): 2 of 6 | survivor count (T/C endpoint: mean survival time, dose: 25.0 mg/kg/injection, schedule: Q04DX003 (ip), vehicle: saline with Tween-80): 0 of 6 | survivor count (T/C endpoint: mean survival time, dose: 50.0 mg/kg/injection, schedule: Q04DX003 (ip), vehicle: saline with Tween-80): 0 of 6 | survivor count (T/C endpoint: mean survival time, dose: 100.0 mg/kg/injection, schedule: Q04DX003 (ip), vehicle: saline with Tween-80): 3 of 6 | survivor count (T/C endpoint: mean survival time, dose: 200.0 mg/kg/injection, schedule: Q04DX003 (ip), vehicle: saline with Tween-80): 0 of 6 | survivor count [1]: 0 of 6

O=C(O)c1c[nH]c2ccc([N+](=O)[O-])cc2c1=O
T/C (T/C endpoint: mean survival time, dose: 200.0 mg/kg/injection, schedule: Q01DX001 (ip), vehicle: Klucel (hydroxypropylcellulose) (HPC)): 128 % of control

CCCCCCCCCCCCCCCC(=O)N(CCCN(CC)CC)C(C)CCCN(CC)CC (stereo not given)
survivor count (T/C endpoint: mean survival time, dose: 12.5 mg/kg/injection, schedule: Q01DX009 (ip), vehicle: water): 2 of 6 | survivor count (T/C endpoint: mean survival time, dose: 25.0 mg/kg/injection, schedule: Q01DX009 (ip), vehicle: water): 0 of 6 and 5 of 6 | survivor count [5]: 2 of 6 | survivor count [6]: 0 of 6 | survivor count [7]: 0 of 6 | survivor count (T/C endpoint: mean survival time, dose: 400.0 mg/kg/injection, schedule: Q01DX009 (ip), vehicle: water): 0 of 6

O=c1oc(-c2ccc3c(c2)OCO3)nc2ccccc12
survivor count [1]: 5 of 6

CCOC(=O)N1C2c3ccccc3C(c3ccccc32)N1C(=O)OCC
survivor count [2]: 5 of 6

CCCN(C)C(=O)N(CCCl)N=O
T/C (T/C endpoint: mean survival time, dose: 156.0 mg/kg/injection, schedule: Q01DX001 (ip), vehicle: other): 128 % of control

Cc1c(O)c2c(c(O)c1Cc1ccc(C#N)cc1)C(=O)c1ccccc1C2=O
survivor count (T/C endpoint: mean survival time, dose: 50.0 mg/kg/injection, schedule: Q01DX009 (ip), vehicle: Klucel (hydroxypropylcellulose) (HPC)): 6 of 6 | survivor count (T/C endpoint: mean survival time, dose: 400.0 mg/kg/injection, schedule: Q01DX009 (ip), vehicle: Klucel (hydroxypropylcellulose) (HPC)): 0 of 6

S=C(N/N=C/c1ccccn1)N/N=C/c1ccccn1
survivor count (T/C endpoint: mean survival time, dose: 150.0 mg/kg/injection, schedule: Q01DX009 (ip), vehicle: saline with Tween-80): 1 of 6 | survivor count (T/C endpoint: mean survival time, dose: 300.0 mg/kg/injection, schedule: Q01DX009 (ip), vehicle: saline with Tween-80): 0 of 6

C1CCC2(CC1)OCCS2
survivor count [8]: 1 of 6

COC1OCC(N=[N+]=[N-])C(OS(C)(=O)=O)C1OS(C)(=O)=O (stereo not given)
survivor count (T/C endpoint: mean survival time, dose: 200.0 mg/kg/injection, schedule: Q01DX009 (ip), vehicle: saline with Tween-80): 3 of 6

CCC(=O)OCC1OC(n2cc(F)c(=O)[nH]c2=O)CC1OC(=O)CC (stereo not given)
T/C (T/C endpoint: mean survival time, dose: 89.0 mg/kg/injection, schedule: Q01DX Z (ip), vehicle: saline): 139 % of control | T/C (T/C endpoint: mean survival time, dose: 133.0 mg/kg/injection, schedule: Q01DX Z (ip), vehicle: saline): 136 % of control | T/C (T/C endpoint: mean survival time, dose: 200.0 mg/kg/injection, schedule: Q01DX Z (ip), vehicle: saline): 136 % of control | T/C (T/C endpoint: mean survival time, dose: 300.0 mg/kg/injection, schedule: Q01DX Z (ip), vehicle: saline): 145 % of control

O=C1CC2c3[nH]c4ccccc4c3CCN2C2=C1CCCC2 (stereo not given)
survivor count [1]: 1 of 6

COc1ccc2c(c1)CCc1cnn(C3OC(COC(C)=O)C(OC(C)=O)C(OC(C)=O)C3OC(C)=O)c1-2 (stereo not given)
survivor count (T/C endpoint: mean survival time, dose: 100.0 mg/kg/injection, schedule: Q01DX005 (ip), vehicle: other): 6 of 6 | survivor count (T/C endpoint: mean survival time, dose: 200.0 mg/kg/injection, schedule: Q01DX005 (ip), vehicle: other): 5 of 6

O=C(O)c1cc2ccccc2o1
survivor count (T/C endpoint: mean survival time, dose: 400.0 mg/kg/injection, schedule: Q01DX001 (ip), vehicle: saline with Tween-80): 0 of 3 | survivor count [1]: 6 of 6

C/C=C(\C)C(=O)OC1C(C)=C2C(C1OC(=O)CCCCC)C(C)(OC(C)=O)CC(OC(=O)CCC)C1(O)C2OC(=O)C1(C)O (stereo not given)
survivor count (T/C endpoint: median survival time, dose: 4.0 mg/kg/injection, schedule: Q01DX005 (ip), vehicle: Klucel (hydroxypropylcellulose) (HPC)): 0 of 6 | survivor count (T/C endpoint: median survival time, dose: 8.0 mg/kg/injection, schedule: Q01DX005 (ip), vehicle: Klucel (hydroxypropylcellulose) (HPC)): 0 of 6

CSc1nc(C)cc(Cl)n1
survivor count [1]: 2 of 6

COc1cc(C2c3cc4c(cc3C(OC3CCCCO3)C3COC(=O)C23)OCO4)cc(OC)c1OC (stereo not given)
T/C (T/C endpoint: median survival time, dose: 6.25 mg/kg/injection, schedule: Q01DX009 (ip), vehicle: Klucel (hydroxypropylcellulose) (HPC)): 138 % of control | T/C (T/C endpoint: median survival time, dose: 12.5 mg/kg/injection, schedule: Q01DX009 (ip), vehicle: Klucel (hydroxypropylcellulose) (HPC)): 143 % of control | T/C [9]: 134 % of control | survivor count [9]: 3 of 6

CCOC1(C)OC2C(CO)OC(n3ccc4c(N)ncnc43)C2O1 (stereo not given)
survivor count [10]: 1 of 6 | survivor count [8]: 0 of 6

Nc1nc(N)c2nc3c(nc2n1)C(=O)N(c1ccc(C(=O)O)cc1)C3
survivor count (T/C endpoint: mean survival time, dose: 50.0 mg/kg/injection, schedule: Q01DX001 (ip), vehicle: saline): 0 of 3 | survivor count (T/C endpoint: mean survival time, dose: 100.0 mg/kg/injection, schedule: Q01DX001 (ip), vehicle: saline): 0 of 3 | survivor count [10]: 0 of 3

CCCCN(CCCC)CCCN1C(=O)c2ccccc2C1=O
survivor count (T/C endpoint: mean survival time, dose: 7.5 mg/kg/injection, schedule: Q01DX009 (ip), vehicle: saline): 6 of 6 | survivor count (T/C endpoint: mean survival time, dose: 60.0 mg/kg/injection, schedule: Q01DX009 (ip), vehicle: saline): 3 of 6 | survivor count (T/C endpoint: mean survival time, dose: 120.0 mg/kg/injection, schedule: Q01DX009 (ip), vehicle: saline): 0 of 6

O=[N+]([O-])c1c[nH]n2c([N+](=O)[O-])cnc12
survivor count [5]: 3 of 6 | survivor count [6]: 0 of 6 | survivor count [7]: 0 of 6

COC(=O)NC1=C(N2CC2)C(=O)C(NC(=O)OC)=C(N2CC2)C1=O
T/C (T/C endpoint: mean survival time, dose: 0.37 mg/kg/injection, schedule: Q01DX009 (ip), vehicle: saline): 126 [9 of 10 alive] and 127 % of control | T/C (T/C endpoint: mean survival time, dose: 0.75 mg/kg/injection, schedule: Q01DX009 (ip), vehicle: saline): 147 % of control | survivor count (T/C endpoint: mean survival time, dose: 6.0 mg/kg/injection, schedule: Q01DX009 (ip), vehicle: saline): 8 of 10 and 9 of 10

N=C(N)N1CCc2ccccc2C1
survivor count [3]: 1 of 6 | survivor count [4]: 0 of 6
